Source: patent US10111937B2, “Method of reducing accumulation of intracellular tingible body macrophages” (THE REGENTS OF THE UNIVERSITY OF MICHIGAN, priority 2008, dated 2018)

System: MDCK cells
Conditions: 1 or 7 days of exposure, FIG. 10B
Method: LPLA2 activity was measured as the transacylation of N-acetylsphingosine. […] The major cellular phospholipids were assayed following 1 or 7 days of exposure to the CAD.

CCCCc1oc2ccccc2c1C(=O)c1cc(I)c(OCCN(CC)CC)c(I)c1 [amiodarone]
cell phospholipids, most notably PC and PE: time dependent increase in cell phospholipids
